This passage reports binding results from article PMC5325327.

Test [1] has as its target T1, Spo0M:DsRed fusion protein (B. subtilis) (UniProt P71088).
T1 sequence: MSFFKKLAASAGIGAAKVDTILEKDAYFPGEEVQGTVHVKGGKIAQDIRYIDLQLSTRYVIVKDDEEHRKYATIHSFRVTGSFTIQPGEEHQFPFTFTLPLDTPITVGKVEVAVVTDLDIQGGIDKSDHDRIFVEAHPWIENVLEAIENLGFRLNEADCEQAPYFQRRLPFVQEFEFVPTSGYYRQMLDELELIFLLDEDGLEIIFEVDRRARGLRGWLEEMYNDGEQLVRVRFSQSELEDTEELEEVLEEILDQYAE
The test is described as follows: co-IP; 1 mg total protein from lysate of the Spo0M:DsRed or induced GFP:ZapA/Spo0M:DsRed strain with anti-DsRed antibody 3 h at 4°C, then protein A beads 3 h at 4°C; Western blot with anti-FtsZ or anti-GFP; control with an unspecific antibody. In general terms: Immunoblotting shows a protein as a band on a membrane.

Test [2] deals with T2, FtsZ (B. subtilis (endogenous in B. subtilis strains)) (UniProt P17865).
T2 sequence: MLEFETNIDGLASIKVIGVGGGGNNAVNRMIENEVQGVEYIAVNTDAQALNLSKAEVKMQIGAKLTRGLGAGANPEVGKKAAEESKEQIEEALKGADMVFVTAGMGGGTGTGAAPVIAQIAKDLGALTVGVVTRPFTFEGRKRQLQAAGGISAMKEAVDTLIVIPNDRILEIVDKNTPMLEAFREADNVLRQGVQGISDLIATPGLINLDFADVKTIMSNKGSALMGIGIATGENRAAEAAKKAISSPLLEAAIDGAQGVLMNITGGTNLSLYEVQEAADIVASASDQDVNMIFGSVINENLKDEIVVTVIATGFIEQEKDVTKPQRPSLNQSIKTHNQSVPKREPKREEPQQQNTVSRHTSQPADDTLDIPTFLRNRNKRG
The test is described as follows: co-IP; reverse order: 1 mg total protein from lysate of the Spo0M:DsRed strain with anti-FtsZ antibody 3 h at 4°C, then protein A beads 3 h at 4°C; Western blot with anti-DsRed; control with a non-specific antibody.

These are yes or no findings as the source states them, for the method shown. Binding seen in cells or lysates may run through a third protein. Some entries that bind do so weakly or less than the wild type. Where a sequence is shown, tags or fusion partners need not be part of it.

B1: GFP:ZapA (protein, UniProt P94542 1-85)
chain: MSDGKKTKTTVDIYGQHFTIVGEESRAHMRYVAGIVDDKMREINEKNPYLDINKLAVLTAVNVVHDYVKLQEKCEKLERQLKEKD
With B1, in test [1], the binding result is given as “binds”.

B2: Spo0M:DsRed fusion protein (protein, UniProt P71088 1-258)
chain: MSFFKKLAASAGIGAAKVDTILEKDAYFPGEEVQGTVHVKGGKIAQDIRYIDLQLSTRYVIVKDDEEHRKYATIHSFRVTGSFTIQPGEEHQFPFTFTLPLDTPITVGKVEVAVVTDLDIQGGIDKSDHDRIFVEAHPWIENVLEAIENLGFRLNEADCEQAPYFQRRLPFVQEFEFVPTSGYYRQMLDELELIFLLDEDGLEIIFEVDRRARGLRGWLEEMYNDGEQLVRVRFSQSELEDTEELEEVLEEILDQYAE
For B2, the binding result in test [2] is on record as “binds”.

B3: FtsZ (protein, UniProt P17865 1-382)
chain: MLEFETNIDGLASIKVIGVGGGGNNAVNRMIENEVQGVEYIAVNTDAQALNLSKAEVKMQIGAKLTRGLGAGANPEVGKKAAEESKEQIEEALKGADMVFVTAGMGGGTGTGAAPVIAQIAKDLGALTVGVVTRPFTFEGRKRQLQAAGGISAMKEAVDTLIVIPNDRILEIVDKNTPMLEAFREADNVLRQGVQGISDLIATPGLINLDFADVKTIMSNKGSALMGIGIATGENRAAEAAKKAISSPLLEAAIDGAQGVLMNITGGTNLSLYEVQEAADIVASASDQDVNMIFGSVINENLKDEIVVTVIATGFIEQEKDVTKPQRPSLNQSIKTHNQSVPKREPKREEPQQQNTVSRHTSQPADDTLDIPTFLRNRNKRG
Consider B3, for which the binding result in test [1] is recorded as “binds”.
